Results: PubChem BioAssay AID328 (DTP/NCI, 2004)
The list does not hold the whole screen: it gathers tests that were run many times, whatever their T/C, doses with no T/C, and many T/C values between a quarter and a half above the control. Other doses and runs of a compound stand elsewhere. T/C is the treated group as % of the vehicle group. Some entries give survivors of the animals treated and no T/C: the source holds a T/C of zero for them, seemingly a mark for toxic or unscored doses. Some survivor counts are full or nearly so, which does not show that the dose was tolerated: survival well below the control is almost never listed, so the zero probably covers shortened survival too. Counts of survivors are from the toxicity check (mostly the fifth day) where no day follows; animals may have died later. Schedules are NCI's codes, taken here to give the interval after Q, in days (D) or hours (H), and the number of doses after X. Some doses were run more than once; their values stand side by side, smallest first. Where survival is the endpoint, the PubChem record calls one and a half times the control and up active, and a quarter to a half above the control has no call in these data; cut-offs in other NCI protocols can differ. Some T/C values carry the count of animals alive at the toxicity check (mostly the fifth day); without a count, all were alive then.

Test system: BDF1 mice, P388 leukemia ip, median survival T/C
Assay: NCI In Vivo Anticancer Drug Screen. Data for tumor model P388 Leukemia (intraperitoneal) in B6D2F1 (BDF1) mice
Conditions: higher T/C = longer survival
Summary of the method: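 Survival ratio, drug arm over vehicle arm, in mice with a transplanted tumour.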

[1] = T/C endpoint: median survival time, dose: 100.0 mg/kg/injection, schedule: Q04DX003 (ip), vehicle: saline
[2] = T/C endpoint: median survival time, dose: 400.0 mg/kg/injection, schedule: Q01DX009 (ip), vehicle: saline with Tween-80

SMILES: N[C@H](C(=O)O)[C@H]1ON=C(Cl)[C@@H]1O
- T/C (T/C endpoint: median survival time, dose: 4.0 mg/kg/injection, schedule: Q01DX009 (ip), vehicle: saline): 138 % of control
- T/C (T/C endpoint: median survival time, dose: 15.0 mg/kg/injection, schedule: Q01DX009 (ip), vehicle: saline): 149 % of control
- T/C (T/C endpoint: median survival time, dose: 22.0 mg/kg/injection, schedule: Q01DX009 (ip), vehicle: other): 141 % of control
- T/C (T/C endpoint: median survival time, dose: 66.0 mg/kg/injection, schedule: Q01DX009 (ip), vehicle: other): 145 % of control
- T/C [1]: 129 % of control
- T/C (T/C endpoint: median survival time, dose: 150.0 mg/kg/injection, schedule: Q01DX009 (ip), vehicle: other): 125 % of control
- T/C (T/C endpoint: median survival time, dose: 200.0 mg/kg/injection, schedule: Q04DX003 (ip), vehicle: saline): 148 % of control
- T/C [2]: 140 % of control

SMILES: Cc1nc2ccccc2c(Cl)c1C
- survivor count (T/C endpoint: median survival time, dose: 200.0 mg/kg/injection, schedule: Q01DX009 (ip), vehicle: Klucel (hydroxypropylcellulose) (HPC)): 5 of 6

SMILES: Cc1ccc(-c2nc3ccccc3c(=O)n2/N=C/c2ccccc2)cc1
- survivor count (T/C endpoint: median survival time, dose: 200.0 mg/kg/injection, schedule: Q01DX009 (ip), vehicle: saline with Tween-80): 6 of 6

SMILES: C[C@]12CC[C@H](OC3OC(CO)C(O)C(O)C3O)C[C@H]1CC[C@@H]1[C@@H]2CC[C@]2(C)[C@@H](C3=CCOC3=O)CC[C@]12O (stereo partly drawn)
- survivor count (T/C endpoint: median survival time, dose: 1.6 mg/kg/injection, schedule: Q01DX010 (ip), vehicle: saline): 6 of 6
- survivor count (T/C endpoint: median survival time, dose: 2.0 mg/kg/injection, schedule: Q01DX010 (ip), vehicle: saline): 6 of 6
- survivor count (T/C endpoint: median survival time, dose: 3.2 mg/kg/injection, schedule: Q01DX010 (ip), vehicle: saline): 6 of 6

SMILES: CCCCCCCCCCCCCC(C)NCc1ccccc1 (stereo not drawn)
- survivor count (T/C endpoint: median survival time, dose: 25.0 mg/kg/injection, schedule: Q01DX009 (ip), vehicle: saline with Tween-80): 6 of 6
- survivor count (T/C endpoint: median survival time, dose: 50.0 mg/kg/injection, schedule: Q01DX009 (ip), vehicle: saline with Tween-80): 3 of 6

SMILES: CC1(C)C(=O)C(O)=C[C@H]2C1=CC[C@@H]1[C@]2(C)C(=O)C[C@]2(C)[C@@H]([C@@](C)(O)C(=O)CC(O)C(C)(C)O)C(O)C[C@@]12C (stereo partly drawn)
- survivor count (T/C endpoint: mean survival time, dose: 4.5 mg/kg/injection, schedule: Q01DX010 (ip), vehicle: carboxymethylcellulose (CMC)): 6 of 6
- T/C (T/C endpoint: mean survival time, dose: 9.0 mg/kg/injection, schedule: Q01DX010 (ip), vehicle: carboxymethylcellulose (CMC)): 126 % of control

SMILES: O=Cc1nccn1Cc1ccccc1
- survivor count (T/C endpoint: median survival time, dose: 400.0 mg/kg/injection, schedule: Q04DX003 (ip), vehicle: saline with Tween-80): 2 of 6

SMILES: CC1(C)N=C(N)N=C(N)N1c1ccc(CCc2ccccc2)cc1
- survivor count (T/C endpoint: median survival time, dose: 75.0 mg/kg/injection, schedule: Q01DX009 (ip), vehicle: saline with Tween-80): 0 of 6

SMILES: NC(CCl)=NC1CCCCC1
- T/C (T/C endpoint: median survival time, dose: 33.0 mg/kg/injection, schedule: Q04DX003 (ip), vehicle: saline): 130 % of control
- T/C (T/C endpoint: median survival time, dose: 50.0 mg/kg/injection, schedule: Q04DX003 (ip), vehicle: saline): 127 and 130 % of control

SMILES: CCOc1ccc2nc3cc(N)ccc3c(N)c2c1
- T/C [1]: 126 % of control
- T/C (T/C endpoint: median survival time, dose: 150.0 mg/kg/injection, schedule: Q04DX003 (ip), vehicle: saline): 127 % of control

SMILES: CCCCC(=O)OCC(=O)[C@]1(O)Cc2c(O)c3c(c(O)c2[C@@H](OC2CC(NC(=O)C(F)(F)F)C(O)C(C)O2)C1)C(=O)c1c(OC)cccc1C3=O (stereo partly drawn)
- T/C (T/C endpoint: median survival time, dose: 5.0 mg/kg/injection, schedule: Q01DX004 (ip), vehicle: other): 135 % of control
- T/C (T/C endpoint: median survival time, dose: 15.1 mg/kg/injection, schedule: Q04DX003 (ip), vehicle: other): 146 % of control
- survivor count (T/C endpoint: median survival time, dose: 40.0 mg/kg/injection, schedule: Q01DX004 (ip), vehicle: other): 10 of 10
- survivor count (T/C endpoint: median survival time, dose: 50.0 mg/kg/injection, schedule: Q01DX004 (ip), vehicle: other): 10 of 10
- survivor count (T/C endpoint: median survival time, dose: 60.0 mg/kg/injection, schedule: Q01DX004 (ip), vehicle: other): 6 of 10 and 10 of 10
- survivor count (T/C endpoint: median survival time, dose: 60.0 mg/kg/injection, schedule: Q01DX004 (ip), vehicle: saline with Tween-80): 8 of 8

SMILES: Cc1cc[n+]2cc3c(ccc4ccccc43)c(C)c2c1
- T/C (T/C endpoint: median survival time, dose: 6.25 mg/kg/injection, schedule: Q01DX010 (ip), vehicle: carboxymethylcellulose (CMC)): 130 % of control
- survivor count (T/C endpoint: median survival time, dose: 50.0 mg/kg/injection, schedule: Q01DX010 (ip), vehicle: carboxymethylcellulose (CMC)): 3 of 6

SMILES: CN(C)[C@@H]1C(=O)C(C(N)=O)=C(O)[C@@]2(O)C(=O)C3=C(O)c4c(O)cccc4C[C@H]3C[C@@H]12
- T/C (T/C endpoint: median survival time, dose: 15.0 mg/kg/injection, schedule: Q01DX010 (ip), vehicle: water): 127 % of control
- T/C (T/C endpoint: median survival time, dose: 30.0 mg/kg/injection, schedule: Q01DX010 (ip), vehicle: saline): 135 % of control [5 of 6 alive]
- T/C (T/C endpoint: median survival time, dose: 30.0 mg/kg/injection, schedule: Q01DX010 (ip), vehicle: water): 127 and 136 % of control
- survivor count (T/C endpoint: median survival time, dose: 45.0 mg/kg/injection, schedule: Q01DX010 (ip), vehicle: water): 6 of 6
- survivor count (T/C endpoint: median survival time, dose: 60.0 mg/kg/injection, schedule: Q01DX010 (ip), vehicle: water): 5 of 6
- survivor count (T/C endpoint: median survival time, dose: 75.0 mg/kg/injection, schedule: Q01DX010 (ip), vehicle: water): 0 of 6

SMILES: CC(C)OC(=O)c1ccc(C(C)C)cc1
- survivor count [2]: 1 of 6
